The values below come from paper PMC5428017, “Targeting to the non-genomic activity of retinoic acid receptor-gamma by acacetin in hepatocellular carcinoma” (Scientific Reports, 2017).

The chains behind the UniProt entries cited, without tags or fusion partners.
UniProt P27986: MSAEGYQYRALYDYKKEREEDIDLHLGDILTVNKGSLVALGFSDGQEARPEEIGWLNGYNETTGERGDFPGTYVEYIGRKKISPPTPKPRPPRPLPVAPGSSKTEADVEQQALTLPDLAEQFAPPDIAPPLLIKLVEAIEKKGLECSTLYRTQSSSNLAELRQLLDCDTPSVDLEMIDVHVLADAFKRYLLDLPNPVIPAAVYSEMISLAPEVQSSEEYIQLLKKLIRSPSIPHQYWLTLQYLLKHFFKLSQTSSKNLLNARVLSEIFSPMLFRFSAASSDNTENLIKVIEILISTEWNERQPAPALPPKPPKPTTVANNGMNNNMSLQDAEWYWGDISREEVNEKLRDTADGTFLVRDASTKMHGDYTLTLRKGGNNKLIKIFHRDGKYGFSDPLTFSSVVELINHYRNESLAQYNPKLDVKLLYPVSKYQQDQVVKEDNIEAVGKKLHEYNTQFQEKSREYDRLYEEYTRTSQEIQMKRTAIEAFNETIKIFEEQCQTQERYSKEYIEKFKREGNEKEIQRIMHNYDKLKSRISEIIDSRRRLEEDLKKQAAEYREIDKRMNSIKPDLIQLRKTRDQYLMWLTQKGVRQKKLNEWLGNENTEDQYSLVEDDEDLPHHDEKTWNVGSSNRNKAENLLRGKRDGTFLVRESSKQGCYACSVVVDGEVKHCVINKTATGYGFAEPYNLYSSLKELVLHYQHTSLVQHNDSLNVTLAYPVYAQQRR

These are yes or no findings as the source states them, for the method shown. Binding seen in cells or lysates may run through a third protein. Some entries that bind do so weakly or less than the wild type.

In the assay the target is T1, retinoic acid receptor-γ (RARγ) (human (endogenous in HepG2)) (UniProt P13631).
T1 sequence: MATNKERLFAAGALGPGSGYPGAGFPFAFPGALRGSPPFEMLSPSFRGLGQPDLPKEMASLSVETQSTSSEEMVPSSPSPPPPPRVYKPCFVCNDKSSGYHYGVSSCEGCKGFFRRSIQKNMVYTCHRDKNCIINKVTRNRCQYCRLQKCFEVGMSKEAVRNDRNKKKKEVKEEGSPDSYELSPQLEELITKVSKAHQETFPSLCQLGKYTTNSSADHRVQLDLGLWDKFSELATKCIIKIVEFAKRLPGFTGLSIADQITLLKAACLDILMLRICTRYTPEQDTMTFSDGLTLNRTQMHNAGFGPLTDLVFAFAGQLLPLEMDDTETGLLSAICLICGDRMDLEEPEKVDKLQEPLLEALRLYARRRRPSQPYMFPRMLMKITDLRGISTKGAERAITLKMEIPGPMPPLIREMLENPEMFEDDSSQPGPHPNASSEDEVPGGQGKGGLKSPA
The assay is described as follows: co-IP; HepG2 cells treated with vehicle for 12 h; lysate (1% Triton X-100, 20 mM Hepes pH 7.6, 150 mM NaCl, 1 mM EDTA) incubated with anti-RARγ antibody at 4 °C overnight, protein A/G agarose; blotted with anti-RARγ and anti-p85α; rabbit IgG as control.

Take “p85α regulatory subunit of PI3K (from UniProt P27986 1-724)”: the binding entry is on record as “binds”.
